Assay results: paper PMC6547884, “Molecular Basis for poly(A) RNP Architecture and Recognition by the Pan2-Pan3 Deadenylase” (Cell, 2019)
No constants are given. Whether binding was seen depends on the method and setting. Some results given as binding are weak or reduced against the parent protein; the word gives no strength.

T1: human PAN3 (human) (UniProt Q58A45)
T1 sequence: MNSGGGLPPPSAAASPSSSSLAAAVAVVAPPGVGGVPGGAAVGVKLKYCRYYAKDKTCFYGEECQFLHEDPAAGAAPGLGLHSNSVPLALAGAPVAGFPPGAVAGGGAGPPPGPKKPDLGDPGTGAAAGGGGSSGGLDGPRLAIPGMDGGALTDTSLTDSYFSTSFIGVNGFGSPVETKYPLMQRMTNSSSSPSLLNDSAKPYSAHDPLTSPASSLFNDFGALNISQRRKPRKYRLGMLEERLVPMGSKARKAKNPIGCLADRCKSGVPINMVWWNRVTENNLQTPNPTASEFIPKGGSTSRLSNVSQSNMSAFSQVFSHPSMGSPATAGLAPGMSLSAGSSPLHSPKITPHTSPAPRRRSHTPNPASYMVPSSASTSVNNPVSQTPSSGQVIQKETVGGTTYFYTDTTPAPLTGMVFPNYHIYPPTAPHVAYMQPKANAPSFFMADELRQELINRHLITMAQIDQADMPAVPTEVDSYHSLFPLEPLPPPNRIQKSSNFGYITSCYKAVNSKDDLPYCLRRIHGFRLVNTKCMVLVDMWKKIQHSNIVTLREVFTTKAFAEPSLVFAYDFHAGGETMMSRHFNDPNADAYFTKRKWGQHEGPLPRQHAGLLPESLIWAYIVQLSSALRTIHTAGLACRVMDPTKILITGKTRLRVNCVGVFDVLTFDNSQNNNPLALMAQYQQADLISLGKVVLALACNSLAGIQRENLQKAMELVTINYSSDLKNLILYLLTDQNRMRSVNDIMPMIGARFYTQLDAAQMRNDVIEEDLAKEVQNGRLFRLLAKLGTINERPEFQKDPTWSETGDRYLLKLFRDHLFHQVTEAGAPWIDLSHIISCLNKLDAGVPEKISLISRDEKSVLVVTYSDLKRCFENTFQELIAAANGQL

T2: Ccr4(110-837) (S. cerevisiae) (UniProt P31384)
T2 sequence: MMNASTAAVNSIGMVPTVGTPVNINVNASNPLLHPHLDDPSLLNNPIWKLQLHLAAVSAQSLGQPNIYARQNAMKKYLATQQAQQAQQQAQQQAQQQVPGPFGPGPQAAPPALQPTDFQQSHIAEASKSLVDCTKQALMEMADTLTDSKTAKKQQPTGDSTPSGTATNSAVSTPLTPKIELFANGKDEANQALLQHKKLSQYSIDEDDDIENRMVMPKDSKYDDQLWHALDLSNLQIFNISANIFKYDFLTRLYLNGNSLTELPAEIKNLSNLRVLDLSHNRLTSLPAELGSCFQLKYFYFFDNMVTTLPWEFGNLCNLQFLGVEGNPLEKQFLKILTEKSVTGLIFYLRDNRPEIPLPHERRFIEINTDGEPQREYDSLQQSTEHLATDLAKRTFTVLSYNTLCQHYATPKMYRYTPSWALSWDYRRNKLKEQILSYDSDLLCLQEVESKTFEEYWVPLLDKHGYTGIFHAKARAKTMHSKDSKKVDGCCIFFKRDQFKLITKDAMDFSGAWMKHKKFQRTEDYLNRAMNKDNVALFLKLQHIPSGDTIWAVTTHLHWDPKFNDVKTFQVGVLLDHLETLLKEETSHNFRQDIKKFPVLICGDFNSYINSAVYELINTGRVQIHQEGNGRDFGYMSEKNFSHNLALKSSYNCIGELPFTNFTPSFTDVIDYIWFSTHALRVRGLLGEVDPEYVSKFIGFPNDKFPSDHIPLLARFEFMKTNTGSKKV


What was measured:
[1] = biological target: T1, human PAN3 (human); assay: co-purification (IMAC, ion exchange, gel filtration); Pan2 and Pan3 variants co-expressed in insect cells; purified via the C-terminal deca-histidine tag on Pan3, then Mono Q and Superdex200 (20 mM HEPES pH 7.5, 200 mM NaCl)
[2] = biological target: T2, Ccr4(110-837) (S. cerevisiae); assay: co-purification (IMAC, heparin, SEC); His-tagged Ccr4(110-837)-Caf1(146-433) co-expressed in insect cells; IMAC, heparin, Superdex200 (20 mM Tris pH 7.5, 250 mM NaCl, 1 mM DTT)

binding [1]	binding [2]	Binder
binds	–	human PAN2cat (D1087A) (enzyme, UniProt Q504Q3 1-1202) MNFEGLDPGLAEYAPAMHSALDPVLDAHLNPSLLQNVELDPEGVALEALPVQESVHIMEGVYSELHSVVAEVGVPVSVSHFDLHEEMLWVGSHGGHATSFFGPALERYSSFQVNGSDDIRQIQSLENGILFLTKNNLKYMARGGLIIFDYLLDENEDMHSLLLTDSSTLLVGGLQNHIIEIDLNTVQETQKYAVETPGVTIMRQTNRFFFCGHTSGKVSLRDLRTFKVEHEFDAFSGSLSDFDVHGNLLAACGFSSRLTGLACDRFLKVYDLRMMRAITPLQVHVDPAFLRFIPTYTSRLAIISQSGQCQFCEPTGLANPADIFHVNPVGPLLMTFDVSASKQALAFGDSEGCVHLWTDSPEPSFNPYSRETEFALPCLVDSLPPLDWSQDLLPLSLIPVPLTTDTLLSDWPAANSAPAPRRAPPVDAEILRTMKKVGFIGYAPNPRTRLRNQIPYRLKESDSEFDSFSQVTESPVGREEEPHLHMVSKKYRKVTIKYSKLGLEDFDFKHYNKTLFAGLEPHIPNAYCNCMIQVLYFLEPVRCLIQNHLCQKEFCLACELGFLFHMLDLSRGDPCQGNNFLRAFRTIPEASALGLILADSDEASGKGNLARLIQRWNRFILTQLHQDMQELEIPQAYRGAGGSSFCSSGDSVIGQLFSCEMENCSLCRCGSETVRASSTLLFTLSYPDGSKSDKTGKNYDFAQVLKRSICLDQNTQAWCDTCEKYQPTIQTRNIRHLPDILVINCEVNSSKEADFWRMQAEVAFKMAVKKHGGEISKNKEFALADWKELGSPEGVLVCPSIEELKNVWLPFSIRMKMTKNKGLDVCNWTDGDEMQWGPARAEEEHGVYVYDLMATVVHILDSRTGGSLVAHIKVGETYHQRKEGVTHQQWYLFNDFLIEPIDKHEAVQFDMNWKVPAILYYVKRNLNSRYNLNIKNPIEASVLLAEASLARKQRKTHTTFIPLMLNEMPQIGDLVGLDAEFVTLNEEEAELRSDGTKSTIKPSQMSVARITCVRGQGPNEGIPFIDDYISTQEQVVDYLTQYSGIKPGDLDAKISSKHLTTLKSTYLKLRFLIDIGVKFVGHGLQKAFRVINLMVPKDQVLDTVYLFHMPRKRMISLRFLAWYFLDLKIQGETHDSIEDARTALQLYRKYLELSKNGTEPESFHKVLKGLYEKGRKMDWKVPEPEGQTSPKNAAVFSSVLAL
–	binds	Caf1(146-433) (domain or fragment, UniProt P39008 146-433) SMPPIFLPPPNYLFVRDVWKSNLYSEFAVIRQLVSQYNHVSISTEFVGTLARPIGTFRSKVDYHYQTMRANVDFLNPIQLGLSLSDANGNKPDNGPSTWQFNFEFDPKKEIMSTESLELLRKSGINFEKHENLGIDVFEFSQLLMDSGLMMDDSVTWITYHAAYDLGFLINILMNDSMPNNKEDFEWWVHQYMPNFYDLNLVYKIIQEFKNPQLQQSSQQQQQQQYSLTTLADELGLPRFSIFTTTGGQSLLMLLSFCQLSKLSMHKFPNGTDFAKYQGVIYGIDGDQ
